Measurements published in article PMC7819943, “Rice protein-binding microarrays: a tool to detect cis-acting elements near promoter regions in rice”.
Some of the results follow.

Amino acid sequences for entries named in this document (tags omitted).
UniProt Q0JBA9, entry or part of it: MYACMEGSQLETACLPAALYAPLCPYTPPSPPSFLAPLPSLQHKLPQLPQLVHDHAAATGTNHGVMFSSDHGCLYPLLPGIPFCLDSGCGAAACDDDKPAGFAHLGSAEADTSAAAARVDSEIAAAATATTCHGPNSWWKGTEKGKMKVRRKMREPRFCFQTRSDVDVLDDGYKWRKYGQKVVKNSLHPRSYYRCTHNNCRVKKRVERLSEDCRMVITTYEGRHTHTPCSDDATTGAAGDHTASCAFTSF

target: OsWRKY34 (Oryza sativa, UniProt Q0JBA9 1-250); experiment: protein-binding microarray (RPBM); PBS, 2% BSA, 51.3 ng/ul salmon testes DNA, 50 uM zinc acetate, 200 nM TF, 25 C, 1 h; high values mean tight binding; details: protein: recombinant; tags: N-terminal polyhistidine and DsRed monomer fusion (pET32a); label: CyDye5-dUTP incorporated in the synthesized complementary strand; 3' TTTTT single-stranded linker to array surface; dsDNA, one strand shown
Summary of the method: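 Using Ni–NTA, transcription factors fused N-terminally to polyhistidine and DsRed were purified after expression in E. coli BL21-CodonPlus. These were incubated at 200 nM with a blocked, double-stranded custom Agilent array for 1 h at 25 °C in a buffer containing 50 µM zinc acetate, and the array was washed. The binding signal is per-feature fluorescence intensity (arbitrary units) on an Axon 4000B scanner.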

| Sequence | binding signal |
| --- | --- |
| GTTATGCCAGCCCAGTTTTCAGAGTCTGTATTATGTTTCCCGGAGTCACCTAGTGCAG | 9420 fluorescence intensity (a.u.) |
| ACAACGACTTGGACGCCGCTGCCGCCGGGAACGATGACTCCGGAGTCACCTAGTGCAG | 8460 fluorescence intensity (a.u.) |
| CATGTGAGAAAAAGTCAACGGCATCATCTATAAGCCAACTCGGAGTCACCTAGTGCAG | 9380 fluorescence intensity (a.u.) |
| GAGAGAGCACCTCGCCGCGGCCTCCAATCTCGCTCCACGACGGAGTCACCTAGTGCAG | 9710 fluorescence intensity (a.u.) |
| CGTCGTCCCCAGCTAGCTATATCCCCTGCAGCATCACATCCGGAGTCACCTAGTGCAG | 9610 fluorescence intensity (a.u.) |
| TTCTCAAGTCGTTTTCTCTCTCAATGTTGCCTGCTCGTGTCGGAGTCACCTAGTGCAG | 8660 fluorescence intensity (a.u.) |
| TCCGTTGGTTCCATTCCTACTCGTCAACAGCTTTAAGATGCGGAGTCACCTAGTGCAG | 10400 fluorescence intensity (a.u.) |
| GCTGGCGGGTAGGGTAGGTCAGGTGTGGGCCATGGGTGTCCGGAGTCACCTAGTGCAG | 8660 fluorescence intensity (a.u.) |
| TGTGTTGCGGCAATGACGGTATCATCAGATTCATCTCCATCGGAGTCACCTAGTGCAG | 8570 fluorescence intensity (a.u.) |
| TTCACTAGATATGTATGCTATGTTTAACAACAAAAACACCCGGAGTCACCTAGTGCAG | 8300 fluorescence intensity (a.u.) |
| CCGCCGGTTCCACGTATCAGCCTCCTCTCCTCTGTCACCTCGGAGTCACCTAGTGCAG | 9070 fluorescence intensity (a.u.) |
| ATTTTGATCCCTCGAGGTGACATACCTTTGTTTCTTAGTACGGAGTCACCTAGTGCAG | 8700 fluorescence intensity (a.u.) |
| ACAGCAAACACACCTTTCACTCGACCTTATTCGAGAACTACGGAGTCACCTAGTGCAG | 8860 fluorescence intensity (a.u.) |
| GCTGATTAATTTCACTCCATGTACTACTGCCGATTTGTTCCGGAGTCACCTAGTGCAG | 9700 fluorescence intensity (a.u.) |
| ACCAACACCGCGCCCTTCCACTGTACCACCCGTGCTCTCCCGGAGTCACCTAGTGCAG | 10700 fluorescence intensity (a.u.) |
| TCGCCGCCGACACTCGCCAAGTTTGATCACTTCTAACCGCCGGAGTCACCTAGTGCAG | 8120 fluorescence intensity (a.u.) |
| CGGCCCTTCTCGAGGCACTTCTGCGGGTTGGGGTCCTTCTCGGAGTCACCTAGTGCAG | 15400 fluorescence intensity (a.u.) |
| TTTTGGTAATTCGCTTCGCAGTGCTCTCTTCTCCTAGAATCGGAGTCACCTAGTGCAG | 8460 fluorescence intensity (a.u.) |
| ATTAACTTTGCTATGTCAGTGAAACTAATCACCTATACTACGGAGTCACCTAGTGCAG | 8630 fluorescence intensity (a.u.) |
| TAACCACCTTGTGTTTGATGACTGCTTCTATCATCATTATCGGAGTCACCTAGTGCAG | 8160 fluorescence intensity (a.u.) |
| TTTCTCGACGTCCTCTGCCTCGTTTTCTTTGCCGATGATGCGGAGTCACCTAGTGCAG | 9210 fluorescence intensity (a.u.) |
| GGCCAGGGTTCTTCATCACCCATCCAACGGTGACAATCCCCGGAGTCACCTAGTGCAG | 11800 fluorescence intensity (a.u.) |
| TGGACACGCGTCGGGCGCTCATTGGCTGGGGTGGGGCATTCGGAGTCACCTAGTGCAG | 15600 fluorescence intensity (a.u.) |
| CCGTTTGGTGGTGGTGGTGGTCGTCGTCGCCTGATTCCGCCGGAGTCACCTAGTGCAG | 8930 fluorescence intensity (a.u.) |
| CTGTTCTTACTTGATGCTTGTGTTTTCTTCATTTCTTGCACGGAGTCACCTAGTGCAG | 13700 fluorescence intensity (a.u.) |
| TCTACTACTCCACTACACGCAAATTTTGGATTAACTGAGACGGAGTCACCTAGTGCAG | 8160 fluorescence intensity (a.u.) |
| TACATACGTACACTGTACCGCATCGCTACGCACGGCATGCCGGAGTCACCTAGTGCAG | 8340 fluorescence intensity (a.u.) |

Taken from above.
binding signal, TGTGTTGCGGCAATGACGGTATCATCAGATTCATCTCCATCGGAGTCACCTAGTGCAG reads 8570 fluorescence intensity (a.u.)
binding signal, TCCGTTGGTTCCATTCCTACTCGTCAACAGCTTTAAGATGCGGAGTCACCTAGTGCAG reads 10400 fluorescence intensity (a.u.)

Going on with the list:

| Sequence | binding signal |
| --- | --- |
| TGCTCAGTGGTTCCTGCAGTCATGTGCTGCTTCAGGCTTTCGGAGTCACCTAGTGCAG | 9980 fluorescence intensity (a.u.) |
| ACTCACTCTCTCCTGATCTTACTCTGCTACCGCTATTCCCCGGAGTCACCTAGTGCAG | 8960 fluorescence intensity (a.u.) |
| TCTATACACATTCTCCGTTTTCTAATGTGTGACGTTAATTCGGAGTCACCTAGTGCAG | 9720 fluorescence intensity (a.u.) |
| GCCATCCAATCAGTACAGTTGCGTCAAGCATTCAACTTCTCGGAGTCACCTAGTGCAG | 11900 fluorescence intensity (a.u.) |
| ATCTTTTATAGCATTCATGTCACTGCGTGTGGACCCATGACGGAGTCACCTAGTGCAG | 8280 fluorescence intensity (a.u.) |
| TTTCTTAATCTACTCCATGCTGACTGGCTCCTAGGTTCAACGGAGTCACCTAGTGCAG | 8620 fluorescence intensity (a.u.) |
| TATACCACGATTATACTGTATTTATATCTGAAAAATTTTTCGGAGTCACCTAGTGCAG | 8690 fluorescence intensity (a.u.) |
| CCAGGAGGTTTTGACTTCAGTTATTCTTGTTAATTAGTTTCGGAGTCACCTAGTGCAG | 8250 fluorescence intensity (a.u.) |
| ACGCTATCCTCCCGGGGCAATATTCGGCTTTCGCGTCGCTCGGAGTCACCTAGTGCAG | 9680 fluorescence intensity (a.u.) |
| TGTCTCGGTCTCGCCGGCGTGCTGCGCGCATGATGTGCTCCGGAGTCACCTAGTGCAG | 9790 fluorescence intensity (a.u.) |
| TAGCGGTGGAGTTGCTTGGGGAGGTGGGCTAGCGCGTGATCGGAGTCACCTAGTGCAG | 10900 fluorescence intensity (a.u.) |
| GTCTTCTTGCAACTGGATAGTGTTCATCAGTTCATGAGTTCGGAGTCACCTAGTGCAG | 9440 fluorescence intensity (a.u.) |
| GCGCGCCTCACCTTTGCCGACGATAGCAACCGGATCGACTCGGAGTCACCTAGTGCAG | 8510 fluorescence intensity (a.u.) |
| CTTGCTTGCTTACGTCTCTCTCGCACACTCCCACTATTCTCGGAGTCACCTAGTGCAG | 10900 fluorescence intensity (a.u.) |
| CCCCACTCGGCTCTTATTCTTCTTCCTCATCCCGTCGCGGCGGAGTCACCTAGTGCAG | 8610 fluorescence intensity (a.u.) |
| AATCTAACATGGATTTGCGCACACACTTGTCGTAACGTACCGGAGTCACCTAGTGCAG | 9480 fluorescence intensity (a.u.) |
| TCCCTCCTCATCTCATTCATTACTCACTCTTTTACTCTTCCGGAGTCACCTAGTGCAG | 8920 fluorescence intensity (a.u.) |
| ATATTTTTTTTGTCATTTACATGTCACTTAAATAGCTATACGGAGTCACCTAGTGCAG | 10200 fluorescence intensity (a.u.) |
| GACGCTTCCGCCTCTAGCTCTCGATCGATCGATCCCACCACGGAGTCACCTAGTGCAG | 10300 fluorescence intensity (a.u.) |
| GCTTATCTTTGCTTGTGGGTCGTTGTCGCCGTCTTTGGTTCGGAGTCACCTAGTGCAG | 8620 fluorescence intensity (a.u.) |
| CCCATCCACTCAGGAGCTTCTCTCATTCCTCATGGCCTCTCGGAGTCACCTAGTGCAG | 8210 fluorescence intensity (a.u.) |
| TGCGTTTATTTATACCGTTGTCCTCGCGTACTGTTTTATTCGGAGTCACCTAGTGCAG | 19400 fluorescence intensity (a.u.) |
| CTACTTGCCTCTGCTGCACAAGCTTTGTTGTTTCTTGCACCGGAGTCACCTAGTGCAG | 10300 fluorescence intensity (a.u.) |
| CATAGCTTTTGGCCTTCTGTGCTTCATCCACCCATTCTGCCGGAGTCACCTAGTGCAG | 10500 fluorescence intensity (a.u.) |
| CTCCTCACCTGCTCAACTTCTGCGCTTTCTGAGCGCGATCCGGAGTCACCTAGTGCAG | 8920 fluorescence intensity (a.u.) |
| AAGTTGGGCGTTGTTCGTTATCCACAGTGGATTTTCTTTTCGGAGTCACCTAGTGCAG | 12800 fluorescence intensity (a.u.) |
| CCTTCTTTCTTCTTCAGTCTCCCTACTCTTTATTTTCTCTCGGAGTCACCTAGTGCAG | 9660 fluorescence intensity (a.u.) |
